In US8278105B2, “Induction, propagation and isolation of liver progenitor cells” (University of Southern California, priority 2008, dated 2012):
At least one compound was matched to its structure with a doubt left.

Tested on: HES2 or HES3 cells
Assay: 3i-induction of hepatocyte-like cells from human ES cells; dosages of medium components examined
Type: cell-based
Conditions: in combination of PD0325901, CHIR99021 and Dorsomorphin
Method: HES2 or 3 cells were cultured for 5 days on MEF-feeders with 20% FCS hES medium in organ culture dishes. […] Cells were detached as clumps by collagenase and feeder cells were removed by sedimentation in DMEM/F-12 medium.
They were subsequently propagated using 3i or Kubota's medium following enzymatic dissection.
HES2 or 3 cells were cultured 5 days on MEF-feeders with 20% FCS hES medium in organ culture dishes.
Cells were detached as clumps by collagenase and feeder cells were removed by sedimentation in DMEM/F-12 medium.

## c1cc(-c2cnn3cc(-c4ccc(OCCN5CCCCC5)cc4)cnc23)ccn1 [Dorsomorphin]
Dorsomorphin 1 μM
  effect on extraembryonic cell differentiation and hepatic differentiation: slightly inhibit extraembryonic cell differentiation without disturbing hepatic differentiation
Dorsomorphin 2 μM
  effect on extraembryonic cell differentiation and hepatic differentiation: greatly inhibit extraembryonic cell differentiation without disturbing hepatic differentiation
